## Primary screen of a compound library

A: 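Phenotypic screen: M. tuberculosis growth, glucose 7H9 medium, 3 days; the read-out is not stated. Compounds at 50 µM. Direction is inferred from retests: higher values go with more growth inhibition. About 69,000 compounds were tested under these conditions; 1.1% (about 760) showed 50% or more at least once.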
B: 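Growth of Mycobacterium tuberculosis over 4 days (cholesterol / DPPC medium with tyloxapol); the read-out is not stated. Tested at 50 µM. Direction is inferred from retests: higher values go with more growth inhibition. Size under these conditions: about 69,000 compounds, about 370 of them at 50% or above in at least one test.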

The filed quantity is “Percent Effect” (%). The record does not define 0% and 100%; most values in the screen are far below 50% and negative numbers occur (in some assays of this library far below -100). Compounds were drawn at random from those tested, without regard to their results. Two or more numbers in one place are separate tests of the same structure; such repeats can differ widely.

| # | compound | A | B |
|---|---|---|---|
| 1 | `CCCNC(=O)C1CCN(CC2(O)CCC(C)CC2)CC1` (centres undefined) | -1.977% & 12.68% | 4.419% |
| 2 | `Cc1noc(CNC(=O)CN(C)c2nc3ccccc3s2)n1` | 1.871% & -11.58% | 11.65% |
| 3 | `COc1ccccc1[C@@H]1CN(Cc2cnn(C)c2C)C[C@H]1C(=O)O` | -11.01% | -14.54% |
| 4 | `CN1CCN(C[C@@H]2CN(C3Cc4ccccc4C3)C[C@@H]2CO)CC1` | -23.53% & -5.277% | -17.95% |
| 5 | `Cc1ccc2c(c1)C(NCc1nnc3n1CCCCC3)CCCO2` (centres undefined) | -22.62% | -34.88% |
| 6 | `O=C1CCCN1C1CCCN(CCn2cc(Cl)cn2)C1` (centres undefined) | 27.43% | -12.05% |
| 7 | `Cc1noc(C2CCN(C(=O)CCc3ccccn3)CC2)n1` | 11.24% | 17.7% |
| 8 | `CNc1ncccc1C(=O)N1CCC2(CCN(C)C2)CC1` | -1.836% | 14.2% |
| 9 | `NC(=O)c1ccccc1Oc1cnc(C2CCCN2)cn1` (centres undefined) | -17.6% | -11.5% |
| 10 | `CCC(C)N(C)CCNC(=O)c1ccccc1OCCOC` (centres undefined) | -5.225% | 23.52% |
| 11 | `[H][C@]12CC[C@]([H])(CN(C(=O)N(C)C)C1)N(C(=O)CCc1n[nH]c(C)c1C)C2` | -20.72% & 2.975% | -4.288% |
| 12 | `CC1(C(=O)NCc2cccnc2Oc2ccc(F)c(F)c2)CCCNC1` (centres undefined) | -3.079% | -3.197% |
| 13 | `NS(=O)(=O)c1ccc(F)c(C(=O)NCCSC2CCCCC2)c1` | -3.601% | -10.43% & -6.125% |
| 14 | `CC(C)N1CCC(c2n[nH]cc2-c2ccnc(N)c2)C1` (centres undefined) | 3.341% | -2.45% & 14.21% |
| 15 | `Cc1ccccc1CS(=O)(=O)CC(=O)NC1CCCCNC1=O` (centres undefined) | 22.57% | 7.438% |
| 16 | `Cc1nocc1C(=O)N1CCOC2(COCCN(C(C)C)C2)C1.O=C(O)C(F)(F)F` (centres undefined) | 12.3% | 4.637% |
| 17 | `CC(C)(O)c1cn(C2CCN(C(=O)CCC3CCCC3)CC2)nn1` | 23.96% & -37.78% | -13.17% |
| 18 | `Cc1cccc2c1OCCC2NCc1c(C)nn(C)c1N(C)C` (centres undefined) | -64.89% | -27.36% |
| 19 | `Cc1ccc(F)cc1C(=O)N1C[C@@H](CN2CCOCC2)[C@@H](CO)C1` | 3.3% | -15.61% |
| 20 | `COc1ccnc(NC(=O)c2cnccn2)c1` | 9.364% | 22.5% |
| 21 | `COc1ccccc1CCNC(=O)NC(C)COCC(F)(F)F` (centres undefined) | -5.359% & -2.86% | -14.02% |
| 22 | `CCCc1noc(CCC(=O)N2CCCC(n3ccnc3C)C2)n1` (centres undefined) | -3.603% | -6.449% |
| 23 | `CC(=O)Cn1nc(-c2ccccc2F)ccc1=O` | 14.25% | 15.71% |
| 24 | `[H][C@]12CC[C@](C(=O)N3CCC(n4cc(CO)nn4)CC3)(C1)C(=C)C2(C)C` | 29.45% | 10.18% |
| 25 | `[H][C@@]12CN(C(=O)c3ccco3)C[C@]1([H])C(=O)N(Cc1cccc(F)c1)C2` | 18.77% | -2.804% |
| 26 | `[H][C@@]12CN(c3ccccn3)C[C@]1([H])N(Cc1ccccc1OC)C(=O)O2` | 27.5% | -0.1859% & 5.508% |
| 27 | `O=C(Nc1ccccn1)C1CCN(C(=O)COc2ccccc2F)C1` (centres undefined) | 15.35% | -40.88% |
| 28 | `CC(C)(C)OC(=O)NCCNC(=O)c1ccc(-c2ccco2)[nH]c1=O` | -28.25% | -17.55% |
| 29 | `CC(=O)c1cc2ncc(C(=O)NC3CC3)cc2[nH]1` | -2.075% | -12.08% |
| 30 | `O=C(c1cc(F)cc(F)c1)N1CCC(O)(C(F)(F)F)CC1` | 0.4163% | -6.382% & -19.68% |
| 31 | `CCS(=O)(=O)N1C[C@@H](O)[C@H](N2CCc3ccccc3C2)C1` | -10.33% | 8.517% |
| 32 | `Cc1ncccc1O[C@H]1CCN(C(=O)c2cccs2)CC[C@@H]1O` | 5.847% | 3.246% |
| 33 | `CC(O)CN1CC2(CCC1=O)CCN(Cc1cc(F)ccc1Cl)CC2` (centres undefined) | 13.74% | 0.4793% & -1.249% |
| 34 | `CCc1nc2c(c(NCc3nc(-c4cccnc4)no3)n1)CCNCC2` | -1.397% | 2.206% |
| 35 | `CC1CCCCN1c1nc2c(c(=O)[nH]1)CCN(Cc1cccnc1)C2` (centres undefined) | 23.86% | -3.415% |
| 36 | `Cc1ccccc1C(=O)N1CC2(COC(C)(C)OC2)C1` | -1.576% & 24.57% | -4.454% |
| 37 | `CSc1ncccc1C(=O)NCCC(O)c1ccco1` (centres undefined) | -20.94% & -12.4% | 1.313% |
| 38 | `CC(NC1CCCC1)c1ccccc1-n1cccn1` (centres undefined) | -17.44% | -3.294% |
| 39 | `[H][C@@]12CCCC[C@]1(O)CCN(C(=O)c1ccc3ccn(C)c3c1)C2` | -16.18% | -39.78% |
| 40 | `O=C1N(CCO)CCCC12CCN(Cc1nnc(C3CC3)o1)C2` (centres undefined) | -7.354% | -9.304% |
| 41 | `CN1CCN(C(=O)c2cccc(OCc3cscn3)c2)CC1` | -12.75% | -9.508% |
| 42 | `[H][C@]12CC[C@](O)(c3ccc(F)cc3)[C@@]1([H])CN(C(=O)c1cc(C3CC3)on1)C2` | 10.45% | -4.227% & 6.752% |
| 43 | `CCCN1CCC(CNC(=O)C2(c3cc(C)cc(C)c3)CCC2)C1` (centres undefined) | 24.36% | 3.066% |
| 44 | `CCCc1noc(C(C)S(=O)(=O)Cc2nc(C3CC3)no2)n1` (centres undefined) | 7.29% | -5.095% |

Some entries from above, unchanged:

Result for NC(=O)c1ccccc1Oc1cnc(C2CCCN2)cn1 (centres undefined) was A: -17.6%; B: -11.5%.
Result for CCS(=O)(=O)N1C[C@@H](O)[C@H](N2CCc3ccccc3C2)C1 was A: -10.33%; B: 8.517%.
Result for Cc1noc(C2CCN(C(=O)CCc3ccccn3)CC2)n1 was A: 11.24%; B: 17.7%.
Result for NS(=O)(=O)c1ccc(F)c(C(=O)NCCSC2CCCCC2)c1 was A: -3.601%; B: -10.43% & -6.125%.
Result for CN1CCN(C[C@@H]2CN(C3Cc4ccccc4C3)C[C@@H]2CO)CC1 was A: -23.53% & -5.277%; B: -17.95%.

Data taken from ChEMBL document CHEMBL3988442, “University of Dundee, Small-Polar-MMV Screening Library” (2021).